Test results: US20240343736A1, “KRAS INHIBITORS” (ELI LILLY AND COMPANY, priority 2023, published 2024)
Some of these results come from one statement about several compounds together.

Columns and labels:
KRAS G12V = molecular target: T1, KRAS G12V (Homo sapiens, UniProt P01116, G12V); test: Cellular Phospho-ERK AlphaLISA assay, SW620 cells (KRAS G12V); assay type: cell-based; details: for selective inhibition preference for KRas G12V mutant over HRAS and NRAS: SW620 vs MEF-NRAS and MEF-HRAS Phospho-ERK AlphaLISA assays; for IC50: cells expressing KRAS G12V, 2 h incubation, read-out: relative IC50, reduction of phosphorylated ERK-1/2
T1 construct: endogenous in cells; host or cells: SW620 (human colorectal cancer)

NRAS = NRAS (Homo sapiens, UniProt P01111); test: Cellular Phospho-ERK AlphaLISA assay, MEF-NRAS (RAS-less MEFs expressing NRAS only); assay type: cell-based, mouse; details: MEF-NRAS cell line; 2 h incubation; read-out: relative IC50, phospho-ERK
HRAS = HRAS (Homo sapiens, UniProt P01112); test: Cellular Phospho-ERK AlphaLISA assay, MEF-HRAS (RAS-less MEFs expressing HRAS only); assay type: cell-based, mouse; details: MEF-HRAS cell line; 2 h incubation; read-out: relative IC50, phospho-ERK
KRAS WT = molecular target: T2, KRAS WT (Homo sapiens, UniProt P01116); test: Cellular Phospho-ERK AlphaLISA assay, cells expressing KRAS WT (MKN45, WT KRAS amplification); assay type: cell-based; details: 2 h incubation, read-out: relative IC50, reduction of phosphorylated ERK-1/2
T2 construct: or amplification of the KRAS gene; endogenous in cells; host or cells: MKN45 (human gastric cancer, WT KRAS amplification)

KRAS G12D = molecular target: T3, KRAS G12D (Homo sapiens, UniProt P01116, G12D); test: Cellular Phospho-ERK AlphaLISA assay, HPAC cells (KRAS G12D); assay type: cell-based; details: cells expressing KRAS G12D; 2 h incubation; read-out: relative IC50, reduction of phosphorylated ERK-1/2
T3 construct: endogenous in cells; host or cells: HPAC (human pancreatic cancer)

KRAS G12C = molecular target: T4, KRAS G12C (Homo sapiens, UniProt P01116, G12C); test: Cellular Phospho-ERK AlphaLISA assay, NCI-1373 cells (KRAS G12C); assay type: cell-based; details: cells expressing KRAS G12C; 2 h incubation; read-out: relative IC50, reduction of phosphorylated ERK-1/2
T4 construct: endogenous in cells; host or cells: NCI-1373 (human lung cancer)

CN1CCO[C@@H](COc2nc(NCc3nc(C4CC4)n[nH]3)c3c4c(c(-c5ccc(F)c6sc(N)c(C#N)c56)c(Cl)c3n2)COC4)C1 [Example 15, 2-Amino-4-(5-chloro-1-(((3-cyclopropyl-1H-1,2,4-triazol-5-yl)methyl)amino)-3-(((R)-4-methylmorpholin-2-yl)methoxy)-7,9-dihydrofuro[3,4-f]quinazolin-6-yl)-7-fluorobenzo[b]thiophene-3-carbonitrile]
selective inhibition preference for KRas G12V mutant over HRAS and NRAS (KRAS G12V): greater than 10 fold | IC50 (KRAS G12V): < 500 nM | IC50 (NRAS): > 2000 nM | IC50 (HRAS): > 2000 nM | IC50 (KRAS WT): < 500 nM | IC50 (KRAS G12D): < 500 nM | IC50 (KRAS G12C): < 500 nM

CCc1nnc(CNc2nc(OC[C@H]3CN(C)CCO3)nc3c(Cl)c(-c4ccc(F)c5sc(N)c(C#N)c45)c4c(c23)COC4)o1 [Example 18, 2-Amino-4-(5-chloro-1-(((5-ethyl-1,3,4-oxadiazol-2-yl)methyl)amino)-3-(((R)-4-methylmorpholin-2-yl)methoxy)-7,9-dihydrofuro[3,4-f]quinazolin-6-yl)-7-fluorobenzo[b]thiophene-3-carbonitrile]
selective inhibition preference for KRas G12V mutant over HRAS and NRAS (KRAS G12V): greater than 10 fold | IC50 (KRAS G12V): < 500 nM | IC50 (NRAS): > 2000 nM | IC50 (HRAS): > 2000 nM | IC50 (KRAS WT): < 500 nM | IC50 (KRAS G12D): < 500 nM | IC50 (KRAS G12C): < 500 nM

N#Cc1c(N)sc2c(F)ccc(-c3c4c(c5c(NCc6nc(C7CC7)n[nH]6)nc(OC[C@@]67CCCN6C[C@H](F)C7)nc5c3Cl)COC4)c12 [Example 19, 2-Amino-4-(5-chloro-1-(((3-cyclopropyl-1H-1,2,4-triazol-5-yl)methyl)amino)-3-(((2R,7aS)-2-fluorotetrahydro-1H-pyrrolizin-7a(5H)-yl)methoxy)-7,9-dihydrofuro[3,4-f]quinazolin-6-yl)-7-fluorobenzo[b]thiophene-3-carbonitrile]
selective inhibition preference for KRas G12V mutant over HRAS and NRAS (KRAS G12V): greater than 10 fold | IC50 (KRAS G12V): < 500 nM | IC50 (NRAS): > 2000 nM | IC50 (HRAS): > 2000 nM | IC50 (KRAS WT): < 500 nM | IC50 (KRAS G12D): < 500 nM | IC50 (KRAS G12C): < 500 nM
